Literature values in patent US20100075361A1, “METHODS OF GENERATING FLORESCENCE RESONANCE ENERGY TRANSFER (FRET) BETWEEN SEMICONDUCTOR QUANTUM DOTS AND FLUORESCENT DYES/PROTEINS VIA MULTI-PHOTON EXCITATION, ACHIEVING ZERO BACKGROUND OR DIRECT EXCITATION CONTRIBUTIONS TO THE FRET SIGNATURE” (Government of the United States of America the Secretary of …, priority 2008, published 2010).
At least one structure is not confirmed: it was looked up by name or label, or the drawing left a doubt.

Details: Water (aqueous buffer), 800 nm; fluorescein standard at pH 13; GFP from reference 28; cited from earlier work

Q: For `O=C1OC2(c3ccc(O)cc3Oc3cc(O)ccc32)c2ccccc21` [Fluorescein], which Two-photon action cross-section is on record?
A: Its Two-photon action cross-section is 36 GM.
